Reference: PubChem BioAssay AID2517 (National Center for Advancing Translational Sciences (NCATS), 2010)
Among all 350,000 compounds or so, about 1,200 (0.34%) were called active. Inconclusive means that the source gave no clear call. Such entries were picked first, then a sample of the others. Calls come from the whole dose curve; as a rule, active = well fitted inhibition curve with a large enough effect; inconclusive = small, poorly fitted or top-dose-only effect; inactive = no such curve, though single readings can be large or run the other way. Potencies of inconclusive entries are doubtful fits and often do not repeat.

The chains behind the UniProt entries cited, without tags or fusion partners.
UniProt P27695, whole entry, looked up: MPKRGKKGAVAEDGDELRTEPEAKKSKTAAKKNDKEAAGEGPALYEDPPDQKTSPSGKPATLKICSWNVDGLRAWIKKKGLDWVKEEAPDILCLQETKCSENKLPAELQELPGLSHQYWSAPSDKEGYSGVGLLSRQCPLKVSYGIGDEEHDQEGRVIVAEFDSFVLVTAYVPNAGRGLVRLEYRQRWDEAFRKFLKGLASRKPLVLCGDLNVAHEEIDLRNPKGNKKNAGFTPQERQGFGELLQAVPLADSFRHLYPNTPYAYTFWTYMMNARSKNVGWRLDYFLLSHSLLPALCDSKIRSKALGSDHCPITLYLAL

target: DNA repair nuclease/redox regulator APEX1 (Homo sapiens) (UniProt P27695); assay: qHTS Assay for Inhibitors of the Human Apurinic/apyrimidinic Endonuclease 1 (APE1); settings: recombinant APE1, TAMRA/BHQ-2 abasic DNA cleavage fluorescence; activity change, negative = inhibition: at 65.8 µM (top of the series); note: nearly all actives have a fitted effect of over 55% in size;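 for activity change, negative = inhibition: plate controls were vehicle for no effect and reference inhibitor for full effect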
Procedure, shortened: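 Quantitative HTS: incision of a TAMRA/BHQ-2 double-stranded substrate bearing a tetrahydrofuran abasic site by 0.75 nM APE1 raises fluorescence. Substrate 50 nM final, added after 15 min compound preincubation at room temperature; progress as third-minus-first kinetic read difference.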
Potency is the fitted concentration of half-maximal effect.

| Compound | Potency | activity change, negative = inhibition |
| --- | --- | --- |
| NC(=O)CNCCC(c1ccccc1)c1ccccc1 | inconclusive: 35.5 µM [inhibitor, single point] | – |
| CC1CC1C(=O)Nc1ccc(-c2ccccc2)cc1 (stereo unspecified) | inconclusive: 1 µM [inhibitor, full curve, poor fit] | – |
| CC(C)CN(C(=O)COC(=O)c1ccc(-c2ccccc2)cc1)C1CCS(=O)(=O)C1 (stereo unspecified) | – | inactive: -8.04% |
| COc1ccc(NC(=O)COC(=O)c2c3c(nc4ccccc24)CCCC3)cc1 | inconclusive: 39.8 µM [inhibitor, single point] | – |
| Brc1ccc(-c2nnc3sc(CNCc4ccc5c(c4)OCO5)cn23)cc1 | inconclusive: 35.5 µM [inhibitor, single point] | – |
| Cc1cccc(C(=O)N2CCC(=O)N([C@H](COCc3cccc(Cl)c3)Cc3ccccc3)CC2)c1 | inconclusive: 31.6 µM [inhibitor, single point] | – |
| O=C(CSc1ccc(F)cc1)Nc1ccc2c(c1)C(=O)NC2=O | – | inactive: -2.54% |
| O=C(O)c1ccc(-c2ccc(/C=c3/sc4nc5ccccc5n4c3=O)o2)cc1Cl | active: 9.47 µM | – |
| CC1CN(Cc2nc3c(c(=O)n(C)c(=O)n3C)n2Cc2cccc(Cl)c2)CC(C)O1 (stereo unspecified) | inconclusive: 28.2 µM [inhibitor, single point] | – |
| O=C1N/C(=C/c2ccc(N3CCOCC3)o2)C(=O)N1c1ccccc1 | – | inactive: -1.73% |
| O=c1ccc2c(-c3ccccc3)c3ccc(O)cc3oc-2c1 | inconclusive: 29.9 µM [inhibitor, single point] | – |
| Cc1ccc(NC(=O)NNC(=O)Cn2nc(-c3ccccc3)c(-c3ccccc3)c(C#N)c2=O)cc1 | inconclusive: 17.8 µM [inhibitor, partial curve] | – |
| Cc1nn(Cc2ccccc2Cl)c(C)c1NC(=O)c1cc(-c2ccc(F)cc2)on1 | inconclusive: 50.1 µM [inhibitor, partial curve, poor fit] | – |
| O=c1c(-c2cccc([N+](=O)[O-])c2)[n+]([O-])c2ccccc2n1O | – | inactive: -9.58% |
| CSc1ncc(-c2ccc(Cl)cc2)[nH]1 | inconclusive: 44.7 µM [inhibitor, single point] | – |
| C#CCOCCOCCOCCNc1nc(N2CCOCC2)nc(N2CCN(C(=O)Cn3cc(CCCN=C(N)N)nn3)CC2)n1 | inconclusive: 3.55 µM [inhibitor, single point] | – |
| COc1cccc(Cn2c(=O)c(-c3ccc(Cl)cc3)nc3cnc(N4CCOCC4)nc32)c1 | inconclusive: 7.94 µM [inhibitor, single point] | – |
| COC(=O)C1=C(C)N(c2ccc(C)c(C)c2)/C(=C/c2ccco2)C1=O | inconclusive: 28.2 µM [inhibitor, partial curve] | – |
| O=C(O)Cn1cc(/C=C2/SC(=O)N(CC(=O)N3CCCCCC3)C2=O)c2ccccc21 | inconclusive: 39.8 µM [inhibitor, single point] | – |
| O=C1C(=O)c2ccccc2C(O)=C1c1ccccc1F | inconclusive: 0.794 µM [inhibitor, single point] | – |
| O=C(O)COc1ccc(Br)cc1C(c1c(C(=O)O)[nH]c2ccccc12)c1c(C(=O)O)[nH]c2ccccc12 | – | inactive: 13.7% |
| COc1ccc(CC(=O)Nc2cc(S(=O)(=O)N3CCCCC3)ccc2C)cc1OC | inconclusive: 15.8 µM [inhibitor, partial curve, poor fit] | – |
| O=C1NC(=Nc2ccccc2)S/C1=C\C=C\c1ccco1 | – | inactive: 2.84% |
| COC(=O)CSc1nnc(-c2ccc(OC)c(OC)c2)o1 | inconclusive: 5.01 µM [inhibitor, full curve, poor fit] | – |

| Compound | Potency | activity change, negative = inhibition |
| --- | --- | --- |
| COc1ccc2c(c1)C=C(C(=O)OCc1cccnc1)CO2 | inconclusive: 0.631 µM [inhibitor, full curve] | – |
| O=C(/C=C/c1ccc([N+](=O)[O-])cc1)Oc1ccc(/C=N/NC(=O)c2ccncc2)cc1 | – | inactive: 79.9% |
| Cc1ccnc(NS(=O)(=O)c2ccc(NC(=O)C3C4C=CC(C4)C3C(=O)O)cc2)n1 (stereo unspecified) | inconclusive: 39.8 µM [inhibitor, single point] | – |
| CC1=NN(c2ccccc2)C(=O)/C1=C\c1c(C)[nH]n(-c2ccccc2)c1=O | – | inactive: -3.14% |
| NC(=O)c1ccc([N+](=O)[O-])cc1 | – | inactive: 3.18% |
| Cc1ccc(S(=O)(=O)CCC(=O)Nc2ccc3c(c2)OCO3)cc1 | inconclusive: 7.08 µM [inhibitor, full curve, poor fit] | – |
| CCc1n(CC(O)COC2CCCCC2)c2ccccc2[n+]1C (stereo unspecified) | – | inactive: 0.992% |
| Cc1cc(C)c2nc(Nc3nc(-c4ccccc4)cc(=O)[nH]3)nc(C)c2c1 | – | inactive: 15.9% |
| CC(=O)N/N=C(\C)c1cccc(C(F)(F)F)c1 | inconclusive: 35.5 µM [inhibitor, partial curve, poor fit] | – |
| CC(CCc1ccccc1)NC(=O)CN(C)Cc1ccccc1F (stereo unspecified) | inconclusive: 44.7 µM [inhibitor, single point] | – |
| O=C1/C(=C/c2ccncc2)SC(=S)N1Cc1ccccc1 | – | inactive: -4.4% |
| CCN(CC)CCOc1ccc(C(O)(Cc2ccc(Cl)cc2)c2ccc(C)cc2)cc1 (stereo unspecified) | inconclusive: 1.78 µM [inhibitor, full curve] | – |
| CCCCCCCCCCCCCCCCCC(=O)NCC(COP(=O)([O-])OCC[N+](C)(C)C)OCC (stereo unspecified) | – | inactive: -5.52% |
| Cc1cnc(NC(=O)CCCSc2nc3ccccc3s2)s1 | inconclusive: 20 µM [inhibitor, single point] | – |
| COc1ccc(-n2c(=O)c(-c3cccs3)nc3cnc(N4CCOCC4)nc32)cc1 | – | inactive: 1.84% |
| O=C(c1ccc(Cl)cc1)N1CCC(O)(CSc2ccc(Cl)cc2)CC1 | inconclusive: 2.24 µM [inhibitor, partial curve] | – |
| C/C(Cc1ccccc1)=N/NC(=O)CCCC(=O)N/N=C(/C)Cc1ccccc1 | inconclusive: 0.0126 µM [inhibitor, full curve, poor fit] | – |
| CC[n+]1c(C)cc2c(sc3ccccc32)c1C | – | inactive: 0.96% |
| COc1ccc(CNc2ccnc(-c3ccccc3Cl)n2)c(OC)c1 | – | inactive: -10.3% |
| O=C(CCN1C(=O)/C(=C/c2ccco2)SC1=S)Nc1ccc(C(=O)O)c(O)c1 | active: 21.2 µM | – |
| NCCCCCCNS(=O)(=O)c1cccc2c(Cl)cccc12 | inconclusive: 0.0355 µM [inhibitor, full curve, poor fit] | – |
| COc1cc2c(ccc3cc(OC)c(OC)c(O)c32)cc1O | active: 0.708 µM | – |
| CCc1ccc(C(=O)NNC(=O)C2CC(=O)N(c3ccc4c(c3)OCCO4)C2)cc1 (stereo unspecified) | – | inactive: -3.54% |
| CCC1CCCCN1C(=O)CSc1nnc(CNC(=O)c2cc(OC)c(OC)c(OC)c2)o1 (stereo unspecified) | inconclusive: 2.82 µM [inhibitor, single point] | – |

| Compound | Potency | activity change, negative = inhibition |
| --- | --- | --- |
| CCOc1cc(/C=N\NC(=O)CC(=O)NCCc2ccccc2)ccc1O | inconclusive: 44.7 µM [inhibitor, single point] | – |
| Cc1ccccc1NS(=O)(=O)c1ccc(NC(=O)N2CCCCC2)cc1 | inconclusive: 37.7 µM [inhibitor, single point] | – |
| NNC(=O)c1sc2cc(C(F)(F)F)cnc2c1-c1ccccn1 | inconclusive: 0.178 µM [inhibitor, partial curve, poor fit] | – |
| CO[C@H]1COC(=O)C/C=C\[C@H](C)[C@@H](OC)COC(=O)[C@H](Cc2ccccc2)NC(=O)C/C=C\[C@@H]1C | inconclusive: 3.98 µM [inhibitor, single point] | – |
| CC(=O)Nc1ccc(NC(=O)c2ccc(COc3ccc4c(C)cc(=O)oc4c3)cc2)cc1 | inconclusive: 3.16 µM [inhibitor, single point] | – |
| Cc1ccc(C2C(C#N)=C(N)SC(N)=C2C#N)o1 | inconclusive: 20 µM [inhibitor, partial curve] | – |
| O=C(O)c1cccc(-n2cccc2/C=C/[N+](=O)[O-])c1 | active: 3.98 µM | – |
| O=C(c1cccs1)N(Cc1ccco1)Cc1cc2ccccc2[nH]c1=O | – | inactive: 0.146% |
| CCCCC1(C)NC(=S)N2N1C(=S)NC2(C)CCCC (stereo unspecified) | – | inactive: -0.715% |
| CC1(C)CC(=O)C2=C(C1)NC(Nc1nc3ccccc3o1)=NC2c1ccccn1 (stereo unspecified) | – | inactive: 11.4% |
| O=C(OCc1ccco1)c1ccc(S(=O)(=O)N2CCCCC2)cc1 | inconclusive: 35.5 µM [inhibitor, single point] | – |
| O=C(CSc1nnc(CNC(=O)c2c(F)cccc2Cl)o1)Nc1ccc2c(c1)OCO2 | – | inactive: -1.15% |
| COc1ccc(-n2nc(C(=O)NCC(=O)NC(C)C)c3ccccc3c2=O)cc1Cl | – | inactive: -5.36% |
| COC(=O)c1c(NC(=O)CN2CCCC(C)C2)c2c(C)cccc2n1C (stereo unspecified) | inconclusive: 0.158 µM [inhibitor, full curve, poor fit] | – |
| C=CCn1cc(C(=O)NCc2ccco2)c(=O)c2cc(S(=O)(=O)N3CCCCCC3)ccc21 | inconclusive: 25.1 µM [inhibitor, single point] | – |
| CCCCC1=CC2=CC(=O)C(C)(OC(=O)CC)C(=O)C2=CN1Cc1ccco1 (stereo unspecified) | inconclusive: 44.7 µM [inhibitor, single point] | inactive: -5.05% [at 12.4 µM] |
| Nc1cc(C(=O)O)ccc1N1CCCCC1 | inconclusive: 39.8 µM [inhibitor, single point] | – |
| O=C(c1cnccn1)N1CCC2(CC1)CN(C(c1ccccc1)c1ccccc1)C2 | – | inactive: 21.7% |
| Cc1ccc(C(=O)COC(=O)c2c(C)cc(=O)oc2C)cc1[N+](=O)[O-] | inconclusive: 0.178 µM [inhibitor, full curve, poor fit] | – |
| CN(C)C1CCc2[nH]c3ccc(NC(=O)c4ccc(F)cc4)cc3c2C1 (stereo unspecified) | – | inactive: -5.72% |
| COc1cc(OC)cc(-c2c(-c3cccs3)c3cc(Br)ccc3n2C)c1 | – | inactive: -1.4% |
| O=S(=O)(c1ccc(Cl)c(Cl)c1)c1snnc1-c1ccccc1 | inconclusive: 12.6 µM [inhibitor, partial curve, poor fit] | – |

Part of the list above in order of molar mass, rising.

| Compound | Potency | activity change, negative = inhibition |
| --- | --- | --- |
| O=C(O)c1cccc(-n2cccc2/C=C/[N+](=O)[O-])c1 | active: 3.98 µM | – |
| Cc1ccc(C(=O)COC(=O)c2c(C)cc(=O)oc2C)cc1[N+](=O)[O-] | inconclusive: 0.178 µM [inhibitor, full curve, poor fit] | – |
| O=C(CSc1nnc(CNC(=O)c2c(F)cccc2Cl)o1)Nc1ccc2c(c1)OCO2 | – | inactive: -1.15% |
